54 molecules from PubChem BioAssay AID1487 (National Center for Advancing Translational Sciences (NCATS), 2009) can be followed below.

Some of the results follow. Shown are side measurements of this screen, not its main read-out; they come without a call. The list favours compounds with an active or inconclusive main result. Words in brackets tell the shape of the fitted curve; partial curves, single points and poor fits give uncertain potencies.

This assay can be described thus: qHTS Assay for Modulators of Lamin A Splicing. The note with it: HeLa LMNA splicing GFP/RFP minigene ratio, 48 h. In a few lines: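 S3 HeLa stable clones carrying a lamin A-EGFP splicing minigene plus DsRed2 were seeded at 600 cells/well in Opti-MEM with 2% FBS, pin-dosed and incubated 48 h at 37°C. Acumen cytometry (488 nm) gave the GFP/RFP total-intensity ratio.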
For orientation: qHTS replaces the single test concentration by a dilution series.

The mark [1] stands for this setting: measured here: GFP splicing reporter channel.
The mark [2] stands for this setting: measured here: RFP viability control channel.

For orientation: AC50 means the concentration giving half of the maximal activity seen.

Turning to `CCCCc1nn2c(=O)cc(COC(=O)c3cccc(OC)c3)nc2s1`, the concentration at half-maximal activity (AC50) under setting [1] is 0.112 µM [falling, full curve, poor fit] and the AC50 under setting [2] is 0.0501 µM [falling, full curve, poor fit].

As to `COc1ccc(/C=C2\CC/C(=C\c3ccc(OC)c(OC)c3)C2=O)cc1OC`, the AC50 under setting [2] is 5.62 µM [falling, full curve].

As to `CC(C)c1nnc(NC(=O)CCS(=O)(=O)c2nc(-c3cccs3)cc(C(F)(F)F)n2)s1`, the AC50 under setting [2] is 2.51 µM [rising, single point].

Take `COc1ccc(S(=O)(=O)N2CCC(C(=O)N3CCC(C(N)=O)CC3)CC2)cc1Cl`: the AC50 is, setting by setting: under setting [1], 11.2 µM [rising, partial curve]; under setting [2], 15.8 µM [rising, single point].

Consider `COc1cccc(C(=O)Nc2cccc(OCc3cc(=O)n4cc(C)ccc4n3)c2)c1`, for which the AC50 was 35.5 µM [falling, single point] under setting [1] and 35.5 µM [falling, partial curve] under setting [2].

On to `CCCc1cc(-c2[nH]ncc2-c2ccc3c(c2)OCCCO3)c(O)cc1O`, for which, under setting [2], the AC50 was 12.6 µM [rising, partial curve].

Regarding `O=C(NCc1ccco1)C(c1ccco1)N(CCc1ccccc1)C(=O)Cn1nnc2ccccc21` (stereo not given), the AC50 under setting [2] is 8.91 µM [rising, partial curve, poor fit].

With `CCOc1ccc(C(=O)/C=C/c2ccc(SC)cc2)cc1`, the AC50 is 12.6 µM [falling, partial curve] under setting [1] and 17.8 µM [falling, partial curve] under setting [2].

On to `CSc1ccc(CN(C)CC(=O)Nc2ccc(C)cc2Br)cc1`, for which the half-maximal activity concentration (AC50) under setting [1] was 12.6 µM [rising, partial curve] and the AC50 under setting [2] is 35.5 µM [rising, single point].

On to `O=C(C1CCN(Cc2ccc(F)cc2)CC1)N(CCc1ccccc1)Cc1ccccc1`, for which the AC50 reads like this: under setting [1], 35.5 µM [rising, partial curve, poor fit]; under setting [2], 35.5 µM [rising, single point].

Turning to `CC1Nc2nc(N(C)C)[nH]c(=O)c2NC1C` (stereo not given), the AC50 under setting [2] was 0.141 µM [rising, full curve, poor fit].

With `CCc1cccc(NC(=O)CN2C(=O)CCc3cc(S(=O)(=O)N4CCOCC4)ccc32)c1`, under setting [2], the AC50 is 0.631 µM [falling, full curve, poor fit].

Consider `O=C(CN1CC(c2ccccc2)CC1=O)N/N=C/c1cc(Br)ccc1O` (stereo not given), for which the AC50 under setting [1] is 39.8 µM [falling, partial curve, poor fit].

In the case of `O=C1C(Cc2ccccc2)C(c2ccccc2)N1c1ccccc1` (stereo not given), the AC50 was 35.5 µM [falling, single point] under setting [1] and 35.5 µM [falling, single point] under setting [2].

On to `COc1ccc(N2CCN(C(=O)CN(c3cccc(Br)c3)S(C)(=O)=O)CC2)cc1`, for which the AC50 under setting [2] is 35.5 µM [rising, single point].

`O=C(O)c1ccc(-n2cccn2)nc1`: under setting [2], the AC50 was 0.0316 µM [falling, full curve, poor fit].

As for `Cc1ccc2c(c1)c(=O)c(C(=O)c1ccncc1)cn2CC(=O)Nc1c(C)cccc1C`, the concentration at half-maximal activity (AC50) under setting [2] was 0.0398 µM [falling, full curve, poor fit].

For `Cc1cc(C(=O)NCCN2C(=O)S/C(=C\c3cccs3)C2=O)ccc1[N+](=O)[O-]`, the concentration at half-maximal activity (AC50) under setting [1] was 3.55 µM [rising, full curve, poor fit].

With `Cc1sc2nc(CN(Cc3cccs3)C(=O)NC3CCCCC3)[nH]c(=O)c2c1C`, the AC50 was 1.41 µM [rising, full curve, poor fit] under setting [1] and 17.8 µM [rising, partial curve] under setting [2].

As for `COC(=O)c1ccc2c(c1)N(Cc1ccccc1F)C(=O)c1ccccc1S2=O` (stereo not given), the AC50 under setting [2] is 35.5 µM [rising, single point].

For the molecule `Cc1ccc2cc(CCNC(=O)c3cccc([N+](=O)[O-])c3)c(=O)[nH]c2c1`, the concentration at half-maximal activity (AC50) is 10 µM [falling, partial curve] under setting [1] and 0.316 µM [falling, full curve, poor fit] under setting [2].

As to `Cc1ccc2nc(N(Cc3cccnc3)C(=O)C3CCCCC3)sc2c1`, under setting [1], the AC50 is 0.1 µM [rising, single point].

`COc1cc(OC)c(NC(=O)CCn2cnc3onc(-c4ccc(F)cc4)c3c2=O)cc1Cl`: under setting [2], the concentration at half-maximal activity (AC50) is 0.00447 µM [falling, full curve, poor fit].

For `CCOc1ccc(NC2c3ccccc3C(=O)N2Cc2ccco2)cc1` (stereo not given), the concentration at half-maximal activity (AC50) under setting [1] was 31.6 µM [rising, single point] and the AC50 under setting [2] is 35.5 µM [rising, single point].

Regarding `O=C(Nc1cnn(Cc2ccc(F)cc2)c1)c1noc2c1CCCC2`, the AC50 reads like this: under setting [1], 0.0631 µM [rising, full curve]; under setting [2], 0.0316 µM [rising, full curve, poor fit].

With `COc1ccc(CCCc2nnc(SCC(=O)Nc3nccs3)n2C)cc1C`, the AC50 under setting [2] was 14.1 µM [rising, single point].

On to `Cc1nnsc1C(=O)Nc1ccccc1`, for which the AC50 is 14.1 µM [falling, partial curve, poor fit] under setting [1] and 22.4 µM [falling, partial curve, poor fit] under setting [2].

Turning to `CCN(CC)c1ccc(/C=N/Nc2nc(C)cc(C)n2)c(O)c1`, the AC50 under setting [2] is 25.1 µM [rising, partial curve].

As for `O=C1N/C(=C/c2ccc(N3CCOCC3)o2)C(=O)N1c1cccc(Cl)c1`, the AC50 is, setting by setting: under setting [1], 0.355 µM [falling, partial curve, poor fit]; under setting [2], 11.2 µM [rising, partial curve].

Take `Cc1ccc2nc(NC(=O)CNS(=O)(=O)c3ccc(Br)s3)sc2c1`: the AC50 reads like this: under setting [1], 10 µM [rising, partial curve]; under setting [2], 12.6 µM [rising, partial curve].

Take `N#Cc1cc2ccccc2nc1SCC(=O)Nc1ccccc1N1CCOCC1`: the AC50 reads like this: under setting [1], 12.6 µM [rising, partial curve]; under setting [2], 15.8 µM [rising, partial curve].

In the case of `COc1ccc(NS(=O)(=O)c2cccc(NC(=O)CCC(=O)c3cccs3)c2)cc1`, the AC50 under setting [1] is 3.16 µM [rising, partial curve, poor fit] and the AC50 under setting [2] was 20 µM [rising, partial curve, poor fit].

Turning to `COc1ccc(-n2[nH]c(C)cc2=O)cc1`, the AC50 under setting [2] is 35.5 µM [rising, single point].

On to `Cc1ccccc1OCCCCn1cnc2ccccc21`, for which the AC50 under setting [1] was 2.24 µM [rising, full curve] and the AC50 under setting [2] was 3.55 µM [rising, partial curve].

For the molecule `CCOc1ccccc1C(=O)NCc1ccc2c(c1)CCN2C(C)=O`, the AC50 under setting [2] is 1.58 µM [rising, partial curve].

Take `Nc1ccccc1Nc1cc(-c2ccccc2)nn1-c1ccccc1`: the half-maximal activity concentration (AC50) under setting [2] was 6.31 µM [rising, partial curve].

On to `Cc1[nH][nH]c(=O)c1C=NCc1cccc(C(F)(F)F)c1`, for which the concentration at half-maximal activity (AC50) under setting [1] was 0.0126 µM [rising, partial curve, poor fit].

As to `CN(C1=C(N2CCCCC2)C(=O)c2ccccc2C1=O)c1ccccc1`, the half-maximal activity concentration (AC50) under setting [2] is 35.5 µM [rising, single point].

For the molecule `COc1ccc2c(c1)CCc1c(C(=O)NC3CCCCC3)noc1-2`, the AC50 under setting [2] is 20 µM [rising, single point].

Consider `Cc1ccc(S(=O)(=O)NCCCC(=O)O)cc1`, for which the AC50 under setting [1] was 0.00447 µM [rising, full curve, poor fit].

Take `Cc1ccc(/C=N/Nc2cccc3cccnc23)c(O)c1`: the AC50 under setting [2] was 12.6 µM [rising, single point].

On to `O=C(NCCc1ccc(Cl)cc1)c1ccc(CSCc2ccccc2Cl)o1`, for which, under setting [2], the AC50 is 11.2 µM [rising, partial curve].

With `CC(C)CC(C(=O)Nc1ccccc1)N1C(=O)C2C3C=CC(C3)C2C1=O` (stereo not given), the AC50 was 1.12 µM [falling, partial curve, poor fit] under setting [1] and 3.55 µM [falling, partial curve] under setting [2].

As to `CN=C1SC(CC(=O)Nc2sc3c(c2C#N)CCCC3)C(=O)N1C` (stereo not given), under setting [2], the AC50 was 0.0891 µM [rising, full curve, poor fit].

For the molecule `Cc1cc(CNC(=O)CCc2nnc(CCCCc3ccccc3)o2)nn1C`, the AC50 under setting [1] was 0.0224 µM [rising, full curve, poor fit].

Consider `Cc1ccc(Nc2nnc(SC(C)C(=O)Nc3c(C)n(C)n(-c4ccccc4)c3=O)s2)cc1` (stereo not given), for which, under setting [2], the AC50 was 12.6 µM [rising, partial curve].

Take `CCN=C1S/C(=C\c2cn(CC)c3ccccc23)C(=O)N1CC`: the concentration at half-maximal activity (AC50) reads like this: under setting [1], 14.1 µM [rising, single point]; under setting [2], 12.6 µM [rising, partial curve].

With `CCOC(=O)c1cnc(SC2CC(=O)N(c3ccccc3)C2=O)nc1N` (stereo not given), the AC50 under setting [2] was 1.12 µM [falling, full curve, poor fit].

`CCCCNS(=O)(=O)c1ccc2nc(SCC(=O)Nc3sccc3C#N)[nH]c2c1`: under setting [2], the AC50 is 15.8 µM [rising, partial curve, poor fit].

As for `CCOC(=O)Cc1csc(NC(=O)c2ccc(Br)s2)n1`, the AC50 under setting [2] was 0.00355 µM [rising, full curve, poor fit].

With `CSc1cccc(N2C(=O)N(CC(=O)NCc3ccccc3Cl)c3ccccc3S2(=O)=O)c1`, the AC50 was 0.282 µM [rising, partial curve] under setting [1] and 6.31 µM [rising, partial curve, poor fit] under setting [2].

In the case of `Cc1ccc(N=C(NO)c2nonc2N)c(C)c1`, the AC50 runs as follows: under setting [1], 5.01 µM [rising, partial curve, poor fit]; under setting [2], 14.1 µM [rising, partial curve].

On to `CCOc1ccc(C(=O)c2oc3ccccc3c2NC(=O)c2cc(-c3ccccc3)on2)cc1`, for which, under setting [1], the AC50 was 12.6 µM [rising, partial curve, poor fit].

For `Cc1cccc2sc(N(Cc3cccnc3)C(=O)Cc3ccccc3)nc12`, the AC50 under setting [2] is 8.91 µM [rising, partial curve].
